Reference: patent US20240247077A1 (CLEMSON UNIVERSITY RESEARCH FOUNDATION, published 2024)
Results are given in words; binding and its absence hold for the method and conditions named. Some binding calls cover weakened binding; strength is not graded here.

T1: synthetic zebrafish CYP1A peptide used for immunizations (unconjugated) (zebrafish (D. rerio))
T1 sequence (peptide): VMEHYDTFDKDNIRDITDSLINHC

T2: core vertebrate CYP1A sequence … (conserved CYP1A1 epitope peptide) (all vertebrates listed in Table 1)
T2 sequence (peptide): IRDITDSLI


How the values were obtained:
[1] = target: mAb CRC4; assay: competition ELISA, soluble core peptide against plate-bound zebrafish peptide
[2] = target: mAb CRC4; assay: competition ELISA, serially diluted core peptide pre-mixed with supernatant, plate coated with zebrafish peptide
[3] = target: T1, synthetic zebrafish CYP1A peptide used for immunizations (unconjugated) (zebrafish (D. rerio)); assay: ELISA on unconjugated peptide; criterion: at least three-fold the OD of an irrelevant antibody
[4] = target: T1, synthetic zebrafish CYP1A peptide used for immunizations (unconjugated) (zebrafish (D. rerio)); assay: ELISA, plate-bound peptide, hybridoma supernatant
[5] = target: T1, synthetic zebrafish CYP1A peptide used for immunizations (unconjugated) (zebrafish (D. rerio)); assay: ELISA on unconjugated peptide, hybridoma supernatant
[6] = target: T2, core vertebrate CYP1A sequence … (conserved CYP1A1 epitope peptide) (all vertebrates listed in Table 1); assay: ELISA on the core peptide
[7] = target: T2, core vertebrate CYP1A sequence … (conserved CYP1A1 epitope peptide) (all vertebrates listed in Table 1); assay: summary of the peptide ELISAs

binding [1] | binding [2] | binding [3] | binding [4] | binding [5] | binding [6] | binding [7] | Binder
binds | binds |  |  |  |  |  | IRDITDSLI [core vertebrate CYP1A sequence … (conserved CYP1A1 epitope peptide)]
 |  | binds | binds | binds | binds | binds | mAb CRC4 (antibody, mouse IgG1, kappa, V domains shown, Mouse IgG1 kappa from a hybridoma, used as confluent hybridoma supernatant (nominally 3 ug/mL after 1:10 dilution); also called monoclonal antibody CRC4; CRC4_1) VH: QVTLKESGPGILQPSQTLSLTCSFSGFSLSTSGMGVNWIRKPSGKGLEWLAHIFWDDDKRYNPSLKSRLTISKDTSRNQVFLMITSVDTADTATYYCASLAMDYWGQGTSVTVSS VL: DIVMTQGASSVTVTPGESVSISCRSSKSLLHSNGRTFLYWFLQRPGQSPQLLIYRMSNLASGVPDRVSGSGSGTAFTLRISRVEAEDVGVYYCMQHLEYPFTFGGGTRLELKR
